From PubChem BioAssay AID504467 (National Center for Advancing Translational Sciences (NCATS), 2011)
Hit rate of the full screen: of about 330,000 compounds, about 7,700 (2.3%) were called active. Inconclusive means that the source gave no clear call. Such entries were picked first, then a sample of the others. Calls follow the shape of the dose curve; as a rule, active = well fitted inhibition curve with a large enough effect; inconclusive = small, poorly fitted or top-dose-only effect, or effect the other way; inactive = flat fitted curve, though single readings scatter. Potencies beside an inconclusive call are fits to weak or partial responses and may not hold up.

Test: qHTS screen for small molecules that inhibit ELG1-dependent DNA repair in human embryonic kidney (HEK293T) cells expressing luciferase-tagged ELG1; also: nearly all actives have a fitted effect of over 55% in size
Conditions: HEK293T ELG1-luciferase reporter, luminescence, 16 h, DNA damage induced by 5-fluorouridine; series mostly up to 46.1 µM
Outline: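 Quantitative HTS, concentration-response format. 2,000 cells/well co-treated with 5-fluorouridine and compound, 16 hr in 5% CO2 at 37 °C; ONE-Glo luminescence read after 30 min.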
Potency is read from the fitted curve at half-maximal effect.

| SMILES | Potency |
| --- | --- |
| CCCCOc1ccc(-n2nc(C)cc2C)nn1 | inconclusive: 14.6 µM [activator, partial curve] |
| COc1cccc(C(=O)Nc2ccc(NC(=O)c3ccco3)c(Cl)c2)c1 | inconclusive: 29.1 µM [inhibitor, single point] |
| O=C(NNC(=O)c1ccc(S(=O)(=O)N2CCOCC2)cc1)c1ccccc1 | inactive |
| O=C(Nc1ccnn1C1CCN(C/C=C/c2ccccc2)CC1)c1ccccc1 | inactive |
| COc1ccc2cc3cc(C(=O)N4CCCCCC4)oc3nc2c1 | inconclusive: 2.59 µM [activator, partial curve] |
| O=S(=O)(Nc1ccc2c(c1)OCCO2)c1ccc2oc3ccccc3c2c1 | inconclusive: 25.9 µM [inhibitor, single point] |
| Cc1ccc(S(=O)(=O)N2CCCCC2c2cccnc2)c(C)c1C (centres undefined) | active: 0.82 µM |
| CC(C)(C)NC(=O)NC(=O)COC(=O)C1CCN(S(=O)(=O)c2cccs2)CC1 | inactive |
| COCc1c(C#N)c(NCCc2ccccc2)nc(C)c1[N+](=O)[O-] | inconclusive: 29.1 µM [inhibitor, partial curve, poor fit] |
| O=C(COC(=O)CCSc1ccccc1)Nc1ccccc1Br | inconclusive: 20.6 µM [activator, single point] |
| COc1cc(-c2nnc(SCc3ccccc3Cl)o2)cc(OC)c1OC | inconclusive: 5.8 µM [inhibitor, partial curve] |
| CCn1c(SCC(=O)Nc2ccccc2C)nc2nc3c(cc2c1=O)COC(C)(C)C3 | active: 13 µM |
| O=C(COC(=O)c1ccc2ncsc2c1)Nc1ccccc1Cl | inconclusive: 20.6 µM [activator, single point] |
| CC(=O)NCCNC(=O)c1ccc(CSc2ccc(Cl)cc2)cc1 | inconclusive: 6.51 µM [activator, partial curve] |
| Cc1ccc(CSc2nc(N)cc(N)n2)cc1 | inconclusive: 20.6 µM [activator, single point] |
| COc1cccc2oc3cc(C#Cc4ccccn4)ccc3c(=O)c12 | inconclusive: 6.51 µM [activator, single point] |
| C=CCOC(=O)C1=C[C@H](c2csc3ccccc23)[C@@H](CCCO)[C@H](OCC)O1 | inconclusive: 18.3 µM [inhibitor, single point] |
| CCc1cc(C(c2ccc(F)cc2)N2CCOCC2)c(NC(=O)c2ccccc2)s1 (centres undefined) | inconclusive: 35.5 µM [inhibitor, single point] |
| O=C(N/N=C/c1ccccc1)C1CCCN1C(=O)c1cc([N+](=O)[O-])cc([N+](=O)[O-])c1 (centres undefined) | inactive |
| COc1ccc(-c2nnc(SCc3ccccn3)n2C)cc1 | inconclusive: 20.6 µM [activator, partial curve] |
| CC(C)(C)NC(=O)c1cccc(NC(=O)c2ccco2)c1 | inactive |
| COc1ccc2nc(/N=C/c3c(C)[nH]n(-c4ccc(C)cc4C)c3=O)sc2c1 | inconclusive: 18.4 µM [activator, partial curve] |

Three of the compounds above, field by field.
CC(C)(C)NC(=O)NC(=O)COC(=O)C1CCN(S(=O)(=O)c2cccs2)CC1
  Potency: inactive
COCc1c(C#N)c(NCCc2ccccc2)nc(C)c1[N+](=O)[O-]
  Potency: inconclusive: 29.1 µM [inhibitor, partial curve, poor fit]
O=C(COC(=O)CCSc1ccccc1)Nc1ccccc1Br
  Potency: inconclusive: 20.6 µM [activator, single point]

Remaining list, next part:

| SMILES | Potency |
| --- | --- |
| Cc1ccc2cc(C#N)c(SCc3nnc(-c4ccccc4[N+](=O)[O-])o3)nc2c1 | inactive |
| CC1CCN(c2ccc(C(=O)NCCc3ccccc3)cn2)CC1 | inconclusive: 7.94 µM [activator, partial curve] |
| Cn1nnnc1NCc1cccc(Cl)c1Cl | inactive |
| COc1coc(C(O)CN)cc1=O (centres undefined) | inactive |
| O=C(Nc1cc(Sc2ccccn2)cc([N+](=O)[O-])c1)c1cccc(F)c1 | inconclusive: 23.1 µM [inhibitor, partial curve] |
| O=C(CCNc1ccc(F)cc1)c1cccc([N+](=O)[O-])c1 | inactive |
| Cc1cc(NC(=O)c2ccccc2)ccc1NC(=O)c1ccccc1Cl | inactive |
| O=[N+]([O-])c1ccc(CNc2ccc(F)cc2)s1 | inconclusive: 9.2 µM [inhibitor, partial curve] |
| O=C(NC1CC2CCCC(C1)N2C(=S)NCCc1ccccc1)C1CC1 (centres undefined) | inactive |
| O=C(c1ccc(NS(=O)(=O)c2ccccc2)cc1)N1CCN(Cc2ccc3c(c2)OCO3)CC1 | inconclusive: 23.1 µM [inhibitor, partial curve, poor fit] |
| [N-]=[N+]=CC(=O)C(c1ccccc1)(c1ccccc1)c1ccccc1 | inconclusive: 29.1 µM [activator, partial curve, poor fit] |
| Cc1cccc(NC(=S)N(CCc2ccncc2)C(C)C)c1C | inactive |
| O=C(CN1CCN(c2ncccn2)CC1)NCCC1=CCCCC1 | inconclusive: 23.1 µM [activator, partial curve, poor fit] |
| O=C(O)c1cc(-c2cccs2)nc2cc3c(cc12)OCCO3 | inconclusive: 16.4 µM [activator, single point] |
| Cc1nn(-c2ccccc2)c(C)c1C(=O)OCC(=O)Nc1ccc2c(c1)OCO2 | inconclusive: 35.5 µM [inhibitor, single point] |
| Cc1ccc(CCN2CC(C(=O)NCCCOC(C)C)CC2=O)cc1 (centres undefined) | inconclusive: 18.4 µM [activator, partial curve, poor fit] |
| O=C(CN1C(=O)CSc2ccc(S(=O)(=O)N3CCCCC3)cc21)NCc1ccccc1 | inconclusive: 0.651 µM [activator, partial curve, poor fit] |
| CC(=O)Nc1ccc(C2=CC(=O)C[C@H](c3ccc4c(c3)OCO4)C2)cc1 | inconclusive: 18.3 µM [inhibitor, single point] |
| CC(C)NC(=O)Nc1ccc2c(c1)C(=O)N([C@H](C)CO)C[C@H](C)[C@@H](CN(C)S(=O)(=O)c1ccc(F)cc1)O2 | inconclusive: 9.2 µM [activator, partial curve] |
| COc1ccc(-c2nc(-n3c(C)c(C(C)=O)c(C(C)=O)c3C)sc2C)cc1OC | inconclusive: 20.6 µM [inhibitor, single point] |
| O=C(N/N=C\c1cccc(F)c1)c1ccc(-c2ccccc2)cc1 | inconclusive: 11.6 µM [activator, partial curve, poor fit] |
| COc1cc2c(cc1NC(=O)C(C)OC(=O)/C=C/c1ccc(OC(F)F)cc1)oc1ccccc12 (centres undefined) | inconclusive: 29.1 µM [activator, single point] |
